# Experimental data as given in PubChem BioAssay AID504848 (National Center for Advancing Translational Sciences (NCATS), 2011).
# Screen size: about 2,300 compounds; about 1,400 (61%) were called active. So high a share suggests a set chosen from earlier hits. Inconclusive results, whose numbers are uncertain, are shown with a selection of clear calls. Calls follow the shape of the dose curve; as a rule, active = well fitted inhibition curve with a large enough effect; inconclusive = small, poorly fitted or top-dose-only effect, or effect the other way; inactive = no such curve, though single readings can be large or run the other way. Potencies of inconclusive entries are doubtful fits and often do not repeat.
# Assay: Confirmation screen for delayed death inhibitors of the malarial parasite plastid, 96 hour incubation; also: nearly all actives have a fitted effect of over 60% in size
# Conditions: P. falciparum luciferase growth in erythrocytes; series mostly up to 28.7 µM
# In short: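 Two-generation (96 h, 37 C) exposure of P. falciparum carrying an integrated firefly luciferase reporter in erythrocytes, 0.1% parasitemia and 2% hematocrit final, Albumax-supplemented RPMI. Luminescence decrease measures growth inhibition.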
# Potency is read from the fitted curve at half-maximal effect.
row,SMILES,Potency
1,O=C(Nc1ccccc1N1CCOCC1)c1cccc(S(=O)(=O)N2CCOCC2)c1,active: 11.2 µM
2,Cc1ccc(CN2CCCCC2C(=O)Nc2ccc(Oc3cccnc3)cc2)o1 (stereo unspecified),"inconclusive: 5.62 µM [inhibitor, partial curve, poor fit]"
3,Cc1nn(-c2nc3ccccc3s2)c(C)c1Oc1ccccc1O,"inconclusive: 4.47 µM [activator, partial curve]"
4,Cc1ccc2cc(C)c(SCC(=O)NCc3ccco3)nc2c1,"inconclusive: 14.1 µM [inhibitor, single point]"
5,Cc1cc([N+](=O)[O-])ccc1NC(=O)CSc1nncn1-c1cccnc1,"inconclusive: 5.01 µM [inhibitor, single point]"
6,O=C(NCc1ccco1)c1ccc(S(=O)(=O)N2CCCc3ccccc32)cc1,"inconclusive: 11.2 µM [inhibitor, partial curve, poor fit]"
7,COc1ccccc1NC(=O)Cn1cnc2sc(C(=O)Nc3ccc(OC)c(OC)c3)c(C)c2c1=O,"inconclusive: 11.2 µM [inhibitor, partial curve]"
8,Cc1noc(C)c1C(=O)Nc1nc(-c2ccc(F)cc2)cs1,inactive
9,CCOc1ccccc1CN1C(=O)NC(C)(c2ccccc2)C1=O (stereo unspecified),"inconclusive: 12.6 µM [inhibitor, single point]"
10,CC(=O)N1CCCN(C(=O)c2cc(COc3c(F)cccc3F)on2)CC1,"inconclusive: 10 µM [inhibitor, partial curve]"
11,CCN(C(=O)CN1C(=O)/C(=C/c2ccc(F)cc2)SC1=S)C1CCS(=O)(=O)C1 (stereo unspecified),"inconclusive: 10 µM [inhibitor, partial curve, poor fit]"
12,Cc1cc(NC(=O)CSCC(=O)Nc2ccccc2Oc2ccccc2)no1,"inconclusive: 11.2 µM [inhibitor, partial curve]"
13,O=C(/C=C/c1cccs1)Nc1sc2c(c1C(=O)O)CCCC2,inactive
14,COc1ccc(S(=O)(=O)N2CCc3ccccc32)cc1C(=O)Nc1cccnc1,"inconclusive: 6.31 µM [inhibitor, full curve, poor fit]"
15,Cc1cccc(NC(=O)[C@H](Cc2c[nH]c3ccccc23)NC(=O)[C@@H]2Cc3ccccc3CN2)c1,active: 10 µM
16,Cc1ccc(NC(=O)c2ccc(Nc3c([N+](=O)[O-])cc([N+](=O)[O-])cc3[N+](=O)[O-])cc2)cc1,active: 2.24 µM
17,CCc1ccc(/C=C2\SC(=S)N(CCCC(=O)Nc3ccccc3C(=O)O)C2=O)cc1,active: 15.8 µM
18,COc1ccc(-n2nc(C#N)c(Cl)cc2=O)cc1,"inconclusive: 3.98 µM [inhibitor, partial curve]"
19,CCN(CC)c1ccc(/C=N/Nc2nc3ccccc3[nH]2)cc1,active: 2.51 µM
20,C=CCNC(=O)c1onc(CSc2ccc(C(C)C)cc2)c1C(=O)O,inactive
21,O=C(Nc1cccc(S(=O)(=O)NCc2ccco2)c1)c1cc(-c2ccc(F)cc2)nc2ccccc12,"inconclusive: 7.94 µM [inhibitor, partial curve]"
22,Cc1cc(C)c(S(=O)(=O)N2CCCCC2CCNC(=O)C(=O)NC2CC2)c(C)c1 (stereo unspecified),"inconclusive: 11.2 µM [inhibitor, partial curve, poor fit]"
23,Cc1ccc(C(=O)NCC(=O)NCCCc2ccccc2)s1,inactive
24,CCOC(=O)c1ccc(N=c2scc(C)n2CC)cc1,"inconclusive: 3.98 µM [activator, partial curve]"

row,SMILES,Potency
1,CCN(CC)c1ccc(/C=N/NC(=S)NC)c(O)c1,"inconclusive: 11.2 µM [inhibitor, partial curve, poor fit]"
2,COc1ccc(C(=O)/C(=C\c2ccco2)N2C=CC=CC2=C(C#N)C#N)cc1,active: 15.8 µM
3,Cc1ccc(NC(=O)c2nnn(CC(=O)Nc3ccc4c(c3)OCO4)c2N)cc1C,inactive
4,O=C(c1ccc(F)c(S(=O)(=O)N2CCOCC2)c1)N1CCN(c2ccc(F)cc2)CC1,"inconclusive: 14.1 µM [inhibitor, partial curve]"
5,Cc1cccn2c(=O)c(C=O)c(Cl)nc12,"inconclusive: 12.6 µM [inhibitor, single point]"
6,CC(=O)Nc1ccc(Nc2nnc(-c3ccc(C)c(S(=O)(=O)NCC4CCCO4)c3)c3ccccc23)cc1 (stereo unspecified),"inconclusive: 15.8 µM [inhibitor, single point]"
7,O=S(=O)(CC(CN1CCCCC1)N1CCCCC1)c1ccccc1 (stereo unspecified),active: 7.94 µM
8,CCOC(=O)c1c(NC(=O)CSc2ccccc2C(=O)O)sc(C)c1C,inactive
9,COc1ccc(C(=O)OCC[N+]2(C)CCCCC2)cc1,"inconclusive: 14.1 µM [inhibitor, partial curve, poor fit]"
10,COC(=O)[C@@H]1C[C@]2(OC(=O)c3ccccc3)C=CC(=O)C[C@@H]2N1C(=O)OCc1ccccc1,active: 12.6 µM
11,CCOc1ccc(C2C3=C(Nc4nc(N)[nH]c(=O)c42)c2ccccc2C3=O)cc1 (stereo unspecified),active: 10 µM
12,CN(C)c1ccc(CNc2ncnc3sccc23)cc1,inactive
13,Cc1c(O)ccc2c(CN(C)Cc3ccccc3)cc(=O)oc12,active: 12.6 µM
14,COc1cc(/C=C(/C#N)C(=O)NCc2ccccc2)cc(OC)c1OC,"inconclusive: 14.1 µM [inhibitor, partial curve, poor fit]"
15,O=C(O)C1CC=CCC1C(=O)Nc1ccc(S(=O)(=O)N2CCCc3ccccc32)cc1 (stereo unspecified),inactive
16,COc1ccc(C(=O)N2CCN(S(=O)(=O)c3ccc(C)cc3C)CC2)cc1OC,"inconclusive: 0.199 µM [inhibitor, full curve, poor fit]"
17,Cc1ccc(S(=O)(=O)N(Cc2ccccc2)C(C)C)cc1,"inconclusive: 15.8 µM [inhibitor, single point]"
18,CC(C)C[C@H](NC(=O)c1nc[nH]c1C(=O)N1CCN(c2ccccc2)CC1)C(=O)OC(C)(C)C,"inconclusive: 20 µM [inhibitor, partial curve, poor fit]"
19,CCC(C)(C)NC(=O)C(c1cccc(OC)c1OC)N(CC(C)C)C(=O)CCC(=O)Nc1cc(C)on1 (stereo unspecified),active: 7.94 µM
20,CC[n+]1ccccc1/C=C/c1ccc(N(C)C)cc1,active: 1.58 µM
21,COc1cccc(NC(=O)c2ccc3c(c2)C(=O)N(CC2CCCO2)C3=O)c1 (stereo unspecified),inactive
22,CC(Oc1ccc(F)cc1)C(=O)Nc1ccc2ccccc2c1 (stereo unspecified),inactive
23,O=C(Nc1ccc2[nH]ncc2c1)c1ccc(F)cc1,inactive
24,CCOc1cc(N2CCOCC2)c(OCC)cc1NC(=O)COC(=O)[C@@H]1CCCN1S(=O)(=O)c1ccccc1F,"inconclusive: 15.8 µM [inhibitor, single point]"

# Structures above containing a cyano group (three):
row,SMILES,Potency
18,COc1ccc(-n2nc(C#N)c(Cl)cc2=O)cc1,"inconclusive: 3.98 µM [inhibitor, partial curve]"
2,COc1ccc(C(=O)/C(=C\c2ccco2)N2C=CC=CC2=C(C#N)C#N)cc1,active: 15.8 µM
14,COc1cc(/C=C(/C#N)C(=O)NCc2ccccc2)cc(OC)c1OC,"inconclusive: 14.1 µM [inhibitor, partial curve, poor fit]"

# 2 entries from above, set out differently.
row | SMILES | Potency
9 | COc1ccc(C(=O)OCC[N+]2(C)CCCCC2)cc1 | inconclusive: 14.1 µM [inhibitor, partial curve, poor fit]
10 | COC(=O)[C@@H]1C[C@]2(OC(=O)c3ccccc3)C=CC(=O)C[C@@H]2N1C(=O)OCc1ccccc1 | active: 12.6 µM

# Additional structures.

row,SMILES,Potency
1,CC(C)c1cc(NC(=O)CCl)on1,active: 7.08 µM
2,COc1ccc(NC(=O)[C@H](Cc2c[nH]c3ccccc23)NC(=O)[C@@H]2Cc3ccccc3CN2)cc1,active: 6.31 µM
3,O=C(Nc1nnc(Cc2ccc(F)cc2)s1)Nc1ccccc1F,active: 12.6 µM
4,CC1CCN(CCCNS(=O)(=O)c2cc(Br)cc3c2N(C(=O)C2CC2)CC3)CC1,active: 12.6 µM
5,Cc1nn(C(C)C(=O)Nc2ccc3c(c2)OCO3)c(C)c1[N+](=O)[O-] (stereo unspecified),"inconclusive: 15.8 µM [inhibitor, single point]"
6,O=C(CSc1nnc(CNc2ccc(F)cc2)o1)c1ccccc1,"inconclusive: 25.1 µM [inhibitor, partial curve, poor fit]"
7,CC(=O)c1ccc(NC(=O)C[n+]2cccc(C)c2)cc1,"inconclusive: 15.8 µM [inhibitor, partial curve]"
8,CCN(CC)CCC[C@H](C)Nc1c2ccc(Cl)cc2nc2ccc(OC)cc12,active: 0.224 µM
9,CCc1noc(C)c1C(=O)N1CCC(CCC(=O)Nc2cccc(C)c2)CC1,active: 6.31 µM
10,O=C(/C=C/c1ccccc1O)c1ccco1,inactive
11,N#CC(C#N)=C1C=CC=CN1/C(=C\c1ccccc1Cl)C(=O)c1ccccc1,"inconclusive: 17.8 µM [inhibitor, single point]"
12,O=C(Nc1ccc2c(c1)OCO2)c1ccccc1,"inconclusive: 3.55 µM [activator, full curve]"
13,CCCN(CCC)CCNC(=O)C1c2ccccc2C(=O)N2CCc3ccccc3C12 (stereo unspecified),"inconclusive: 20 µM [inhibitor, partial curve, poor fit]"
14,O=C1c2cc([N+](=O)[O-])cc3cc([N+](=O)[O-])cc(c23)C(=O)N1c1ccccn1,"inconclusive: 14.1 µM [inhibitor, single point]"
15,CCOc1ccccc1-c1cc(C(=O)N/N=C/c2ccc(O)c(OC)c2)c2ccccc2n1,"inconclusive: 12.6 µM [inhibitor, partial curve]"
16,Cc1cc(N2CCOCC2)ccc1/C=C\[N+](=O)[O-],"inconclusive: 10 µM [inhibitor, partial curve, poor fit]"
17,COc1ccc(/C=C/C(=O)NC(=S)NN2CCCCC2c2cccnc2)cc1 (stereo unspecified),"inconclusive: 15.8 µM [inhibitor, partial curve, poor fit]"
18,O=C1CN(c2nc(-c3cccnc3)nc3scc(-c4ccccc4)c23)CCN1,inactive
19,CC1CN(c2nc(-c3ccc(Br)cc3)nnc2-c2ccccc2)CC(C)N1 (stereo unspecified),active: 2.82 µM
20,COc1cc([N+](=O)[O-])ccc1NC(=S)Nc1cccc(C(=O)O)c1,"inconclusive: 14.1 µM [inhibitor, single point]"
21,Brc1ccc2[nH]c3c(c2c1)CCC3,inactive
22,CC(C)C(=O)NC(=S)Nc1ccc(S(=O)(=O)NC2CCCCC2)cc1,inactive
23,CCCc1c(C)c2cccc(C)c2[nH]c1=O,inactive
